Source: article PMC10464977
No constants are given. Whether binding was seen depends on the method and setting. In cells and extracts the contact can be indirect. Binding calls can cover weak binding; strength is not graded here. Sequences can lack the tags named with a protein.

Tests used:
[1] = target: T1, FLAG::DBL-1 mature domain (C. elegans) (UniProt G5EEL5); assay: co-IP; two lysates or media of transfected Drosophila S2 cells, each with one tagged protein, mixed and rotated on anti-HA, anti-V5, anti-Myc or anti-FLAG beads overnight at 4°C; five washes in 50 mM Tris-HCl (pH 7.5), 150 mM NaCl, 1% Triton X-100; immunoblot
T1 sequence: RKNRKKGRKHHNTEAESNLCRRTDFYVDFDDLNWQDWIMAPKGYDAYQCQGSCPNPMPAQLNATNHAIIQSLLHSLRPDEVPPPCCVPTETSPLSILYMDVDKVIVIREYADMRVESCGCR

[2] = target: T1, FLAG::DBL-1 mature domain (C. elegans); assay: co-IP; LON-2::Myc and DBL-1 (HA::prodomain::FLAG::mature domain) from S2 cells mixed together in the presence of SMOC-1::V5; IP with anti-FLAG beads or anti-Myc beads, IB with anti-Myc, anti-V5 or anti-FLAG

- binding [1]: binds
- binding [2]: binds
Substance: SMOC-1(Full)::V5 (C. elegans)
